# The list shows a part of the results. The list holds hits alone, and they repeat only in part.
# Chains of the proteins cited; added tags and fusions are not shown.
# CKS2, P33552, UniProt P33552, whole entry: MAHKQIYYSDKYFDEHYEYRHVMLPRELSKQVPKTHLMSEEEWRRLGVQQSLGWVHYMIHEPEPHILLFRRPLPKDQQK
# EIF1, P41567, UniProt P41567, whole entry: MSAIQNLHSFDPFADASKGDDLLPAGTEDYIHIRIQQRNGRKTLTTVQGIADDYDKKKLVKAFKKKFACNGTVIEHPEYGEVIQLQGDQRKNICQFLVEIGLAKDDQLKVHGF
# EIF5, P55010, UniProt P55010, whole entry: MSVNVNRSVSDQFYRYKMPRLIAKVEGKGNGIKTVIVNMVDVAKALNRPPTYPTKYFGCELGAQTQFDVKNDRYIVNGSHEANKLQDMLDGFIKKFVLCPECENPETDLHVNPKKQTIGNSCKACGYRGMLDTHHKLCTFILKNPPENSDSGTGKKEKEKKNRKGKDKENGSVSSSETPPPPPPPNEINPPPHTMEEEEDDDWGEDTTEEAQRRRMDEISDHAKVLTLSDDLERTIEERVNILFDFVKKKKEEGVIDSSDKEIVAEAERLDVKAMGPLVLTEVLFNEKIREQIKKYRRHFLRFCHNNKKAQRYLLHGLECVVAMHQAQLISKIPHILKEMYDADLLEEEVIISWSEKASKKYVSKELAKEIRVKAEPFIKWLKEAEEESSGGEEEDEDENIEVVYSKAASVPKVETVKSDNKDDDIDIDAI
# FAM168B, A1KXE4, UniProt A1KXE4, whole entry: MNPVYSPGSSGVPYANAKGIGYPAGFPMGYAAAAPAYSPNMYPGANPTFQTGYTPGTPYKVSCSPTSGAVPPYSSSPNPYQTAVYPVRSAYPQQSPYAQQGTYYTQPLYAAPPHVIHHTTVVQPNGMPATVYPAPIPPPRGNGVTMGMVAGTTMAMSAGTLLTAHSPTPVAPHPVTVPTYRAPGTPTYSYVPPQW
# HSPB1, P04792, UniProt P04792, whole entry: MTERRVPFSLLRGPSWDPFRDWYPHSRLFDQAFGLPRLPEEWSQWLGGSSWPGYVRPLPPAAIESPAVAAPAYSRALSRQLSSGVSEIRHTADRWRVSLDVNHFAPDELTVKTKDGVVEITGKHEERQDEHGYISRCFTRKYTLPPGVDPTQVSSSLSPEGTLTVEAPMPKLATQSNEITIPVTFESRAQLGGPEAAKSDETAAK
# PCBP2, Q15366, UniProt Q15366, whole entry: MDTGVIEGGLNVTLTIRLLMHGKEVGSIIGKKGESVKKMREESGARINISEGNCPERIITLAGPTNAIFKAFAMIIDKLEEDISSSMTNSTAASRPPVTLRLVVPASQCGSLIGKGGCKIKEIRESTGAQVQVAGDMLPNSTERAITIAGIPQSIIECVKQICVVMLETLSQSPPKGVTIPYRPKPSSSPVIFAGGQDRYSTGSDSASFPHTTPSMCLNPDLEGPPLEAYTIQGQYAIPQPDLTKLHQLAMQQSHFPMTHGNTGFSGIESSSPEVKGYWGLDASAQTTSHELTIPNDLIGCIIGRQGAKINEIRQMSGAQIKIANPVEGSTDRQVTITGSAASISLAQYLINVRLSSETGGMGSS
# CCNT1, O60563, UniProt O60563, whole entry: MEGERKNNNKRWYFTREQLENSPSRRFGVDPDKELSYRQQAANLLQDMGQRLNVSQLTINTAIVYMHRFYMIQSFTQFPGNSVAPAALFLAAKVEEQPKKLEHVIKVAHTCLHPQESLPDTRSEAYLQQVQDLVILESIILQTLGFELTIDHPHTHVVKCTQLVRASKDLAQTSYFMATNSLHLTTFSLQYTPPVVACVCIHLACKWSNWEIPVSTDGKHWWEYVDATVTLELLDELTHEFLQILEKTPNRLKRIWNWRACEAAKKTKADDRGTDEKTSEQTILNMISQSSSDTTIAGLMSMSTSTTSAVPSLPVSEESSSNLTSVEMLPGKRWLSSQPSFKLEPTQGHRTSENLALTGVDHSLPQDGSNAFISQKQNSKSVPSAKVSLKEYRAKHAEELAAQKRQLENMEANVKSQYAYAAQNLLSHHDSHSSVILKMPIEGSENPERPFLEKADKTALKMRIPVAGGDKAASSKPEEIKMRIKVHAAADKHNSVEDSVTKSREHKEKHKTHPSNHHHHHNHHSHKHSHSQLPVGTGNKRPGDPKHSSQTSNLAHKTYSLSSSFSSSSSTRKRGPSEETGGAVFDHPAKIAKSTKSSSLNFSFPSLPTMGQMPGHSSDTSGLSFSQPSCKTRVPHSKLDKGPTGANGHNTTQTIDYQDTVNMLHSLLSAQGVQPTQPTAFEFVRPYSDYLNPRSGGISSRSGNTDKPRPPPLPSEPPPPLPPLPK
# DDB1, Q16531, UniProt Q16531, whole entry: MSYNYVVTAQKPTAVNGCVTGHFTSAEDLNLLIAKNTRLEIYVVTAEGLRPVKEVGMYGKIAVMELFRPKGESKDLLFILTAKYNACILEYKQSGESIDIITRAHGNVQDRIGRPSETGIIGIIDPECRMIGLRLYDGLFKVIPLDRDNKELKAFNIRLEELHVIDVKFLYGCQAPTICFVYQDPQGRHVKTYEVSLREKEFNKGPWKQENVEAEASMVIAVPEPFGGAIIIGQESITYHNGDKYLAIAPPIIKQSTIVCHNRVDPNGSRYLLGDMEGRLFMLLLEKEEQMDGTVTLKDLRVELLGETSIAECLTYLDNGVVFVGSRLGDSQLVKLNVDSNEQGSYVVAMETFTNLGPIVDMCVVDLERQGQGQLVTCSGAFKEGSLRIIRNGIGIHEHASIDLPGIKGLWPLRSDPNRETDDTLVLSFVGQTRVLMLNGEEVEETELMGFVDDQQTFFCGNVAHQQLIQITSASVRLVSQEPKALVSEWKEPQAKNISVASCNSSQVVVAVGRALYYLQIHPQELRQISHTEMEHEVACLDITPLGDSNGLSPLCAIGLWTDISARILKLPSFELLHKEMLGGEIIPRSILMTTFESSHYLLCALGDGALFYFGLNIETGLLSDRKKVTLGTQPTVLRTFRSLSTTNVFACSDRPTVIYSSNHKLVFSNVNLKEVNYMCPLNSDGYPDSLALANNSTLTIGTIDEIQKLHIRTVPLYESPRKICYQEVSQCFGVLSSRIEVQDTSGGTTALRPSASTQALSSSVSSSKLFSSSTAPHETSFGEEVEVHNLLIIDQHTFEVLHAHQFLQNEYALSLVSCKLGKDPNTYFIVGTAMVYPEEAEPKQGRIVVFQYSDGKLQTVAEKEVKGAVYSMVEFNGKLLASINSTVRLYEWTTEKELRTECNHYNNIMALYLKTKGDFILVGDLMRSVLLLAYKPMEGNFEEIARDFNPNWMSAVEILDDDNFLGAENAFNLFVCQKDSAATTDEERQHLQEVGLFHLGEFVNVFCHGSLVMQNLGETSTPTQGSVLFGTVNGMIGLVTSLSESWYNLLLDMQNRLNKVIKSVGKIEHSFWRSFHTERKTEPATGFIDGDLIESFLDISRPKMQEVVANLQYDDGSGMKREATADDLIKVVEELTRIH
# PAXIP1, Q6ZW49, UniProt Q6ZW49, whole entry: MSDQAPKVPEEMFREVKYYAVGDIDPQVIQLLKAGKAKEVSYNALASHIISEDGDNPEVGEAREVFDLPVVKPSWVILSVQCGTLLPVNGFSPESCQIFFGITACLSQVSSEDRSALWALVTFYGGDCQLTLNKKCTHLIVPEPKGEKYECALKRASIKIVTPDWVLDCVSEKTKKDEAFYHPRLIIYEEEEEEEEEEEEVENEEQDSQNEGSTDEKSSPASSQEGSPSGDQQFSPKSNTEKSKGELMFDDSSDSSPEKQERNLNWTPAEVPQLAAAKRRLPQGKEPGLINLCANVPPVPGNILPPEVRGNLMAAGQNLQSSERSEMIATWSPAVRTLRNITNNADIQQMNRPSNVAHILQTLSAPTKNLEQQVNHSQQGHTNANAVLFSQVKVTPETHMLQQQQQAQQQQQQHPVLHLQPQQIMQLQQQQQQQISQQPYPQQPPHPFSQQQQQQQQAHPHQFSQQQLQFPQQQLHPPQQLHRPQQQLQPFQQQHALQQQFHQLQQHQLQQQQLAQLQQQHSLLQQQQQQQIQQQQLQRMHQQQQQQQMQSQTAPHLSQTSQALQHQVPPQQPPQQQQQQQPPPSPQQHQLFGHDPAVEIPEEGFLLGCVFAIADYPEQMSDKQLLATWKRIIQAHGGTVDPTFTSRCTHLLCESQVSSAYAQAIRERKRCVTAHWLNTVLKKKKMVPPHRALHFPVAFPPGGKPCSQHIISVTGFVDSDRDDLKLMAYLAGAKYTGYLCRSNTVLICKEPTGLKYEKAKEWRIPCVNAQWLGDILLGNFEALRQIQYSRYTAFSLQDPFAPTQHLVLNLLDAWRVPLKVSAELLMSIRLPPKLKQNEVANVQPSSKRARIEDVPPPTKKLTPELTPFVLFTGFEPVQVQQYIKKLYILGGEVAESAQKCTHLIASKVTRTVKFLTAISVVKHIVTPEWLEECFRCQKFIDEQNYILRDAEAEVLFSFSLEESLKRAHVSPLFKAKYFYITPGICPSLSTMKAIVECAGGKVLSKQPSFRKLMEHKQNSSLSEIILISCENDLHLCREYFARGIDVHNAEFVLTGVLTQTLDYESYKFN
# NUP153, P49790, UniProt P49790, whole entry: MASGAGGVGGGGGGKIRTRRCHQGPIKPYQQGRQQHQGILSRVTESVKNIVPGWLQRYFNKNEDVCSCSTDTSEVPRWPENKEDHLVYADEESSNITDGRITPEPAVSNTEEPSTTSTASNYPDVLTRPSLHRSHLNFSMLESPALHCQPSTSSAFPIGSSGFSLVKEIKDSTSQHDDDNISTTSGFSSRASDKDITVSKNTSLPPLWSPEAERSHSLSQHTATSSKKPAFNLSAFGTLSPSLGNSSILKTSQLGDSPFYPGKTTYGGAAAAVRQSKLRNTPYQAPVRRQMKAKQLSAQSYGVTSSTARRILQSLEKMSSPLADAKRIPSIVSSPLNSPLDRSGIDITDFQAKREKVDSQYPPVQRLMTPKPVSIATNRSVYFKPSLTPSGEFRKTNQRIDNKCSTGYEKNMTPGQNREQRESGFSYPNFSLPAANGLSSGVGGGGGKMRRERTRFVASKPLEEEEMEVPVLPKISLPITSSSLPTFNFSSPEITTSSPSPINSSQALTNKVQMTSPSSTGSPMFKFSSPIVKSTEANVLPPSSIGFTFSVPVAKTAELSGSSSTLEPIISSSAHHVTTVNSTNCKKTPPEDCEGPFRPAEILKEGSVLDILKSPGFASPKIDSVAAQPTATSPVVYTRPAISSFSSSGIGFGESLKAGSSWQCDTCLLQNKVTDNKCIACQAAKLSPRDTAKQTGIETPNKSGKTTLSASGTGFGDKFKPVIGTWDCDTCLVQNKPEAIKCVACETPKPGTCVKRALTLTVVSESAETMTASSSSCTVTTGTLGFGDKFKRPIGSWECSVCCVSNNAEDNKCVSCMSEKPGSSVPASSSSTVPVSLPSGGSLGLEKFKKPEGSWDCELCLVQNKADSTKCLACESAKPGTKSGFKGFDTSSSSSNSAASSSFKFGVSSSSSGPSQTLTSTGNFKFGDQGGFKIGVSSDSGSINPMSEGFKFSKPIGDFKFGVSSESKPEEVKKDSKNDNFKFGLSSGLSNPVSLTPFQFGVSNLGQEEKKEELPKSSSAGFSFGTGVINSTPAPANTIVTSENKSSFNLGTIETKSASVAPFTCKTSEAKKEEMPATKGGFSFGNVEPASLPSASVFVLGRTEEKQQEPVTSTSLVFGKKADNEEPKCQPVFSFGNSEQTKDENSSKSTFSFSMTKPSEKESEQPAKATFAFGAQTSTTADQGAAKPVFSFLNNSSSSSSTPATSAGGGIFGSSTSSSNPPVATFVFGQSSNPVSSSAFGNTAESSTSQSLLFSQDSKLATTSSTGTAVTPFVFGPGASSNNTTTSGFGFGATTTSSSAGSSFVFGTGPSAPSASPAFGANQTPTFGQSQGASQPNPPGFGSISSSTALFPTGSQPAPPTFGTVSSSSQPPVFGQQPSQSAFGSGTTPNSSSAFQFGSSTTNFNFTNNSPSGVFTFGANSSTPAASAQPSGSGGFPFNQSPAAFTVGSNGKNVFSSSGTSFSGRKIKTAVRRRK
# How the values were obtained:
# Experiment in all cases: PRISMA enrichment of interactor (LFQ) in peptide spot vs all other peptide spots (log2 fold change); higher = stronger / more specific binding of the interactor to the peptide
# [1] = molecular target: ATP5MF, P56134
# Procedure: (§1)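 PRISMA: 15-aa overlapping tiles (offset 8 aa) of 60 microproteins, plus SOS1/GLUT1 control peptides, were spot-synthesized on cellulose membranes in triplicate. Membranes were incubated with benzonase-treated HEK293T lysate, and bound proteins were identified by LC-MS/MS with LFQ. Enrichment is the log2 fold change of each protein in one spot versus all other spots. Only interactors passing the significance cutoff are listed.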
# [2] = molecular target: CKS2, P33552
# Procedure: as §1
# [3] = molecular target: DNAJB11, Q9UBS4
# Procedure: as §1
# [4] = molecular target: EIF1, P41567
# Procedure: as §1
# [5] = molecular target: EIF5, P55010
# Procedure: as §1
# [6] = molecular target: EPS15, P42566
# Procedure: as §1
# [7] = molecular target: FAM168B, A1KXE4
# Procedure: as §1
# [8] = molecular target: HSPB1, P04792
# Procedure: as §1
# [9] = molecular target: LSM12, Q3MHD2
# Procedure: as §1
# [10] = molecular target: MLEC, Q14165
# Procedure: as §1
# [11] = molecular target: NTPCR, Q9BSD7
# Procedure: as §1
# [12] = molecular target: PCBP2, Q15366
# Procedure: as §1
# [13] = molecular target: SDF2L1, Q9HCN8
# Procedure: as §1
# [14] = molecular target: UBAP2L, Q14157
# Procedure: as §1
# [15] = molecular target: ATP1A1, P05023
# Procedure: as §1
# [16] = molecular target: CARM1, Q86X55
# Procedure: as §1
# [17] = molecular target: CCNT1, O60563
# Procedure: as §1
# [18] = molecular target: CDK5, Q00535
# Procedure: as §1
# [19] = molecular target: CHD4, Q14839
# Procedure: as §1
# [20] = molecular target: DDB1, Q16531
# Procedure: as §1
# [21] = molecular target: DHX33, Q9H6R0
# Procedure: as §1
# [22] = molecular target: DUSP11, O75319
# Procedure: as §1
# [23] = molecular target: EIF2B3, Q9NR50
# Procedure: as §1
# [24] = molecular target: GPD1L, Q8N335
# Procedure: as §1
# [25] = molecular target: IRS4, O14654
# Procedure: as §1
# [26] = molecular target: MRPL1, Q9BYD6
# Procedure: as §1
# [27] = molecular target: MRPL19, P49406
# Procedure: as §1
# [28] = molecular target: MRPL45, Q9BRJ2
# Procedure: as §1
# [29] = molecular target: PAXIP1, Q6ZW49
# Procedure: as §1
# [30] = molecular target: POLR2C, P19387
# Procedure: as §1
# [31] = molecular target: POLR2J3, Q9H1A7
# Procedure: as §1
# [32] = molecular target: PPP4R3A, Q6IN85
# Procedure: as §1
# [33] = molecular target: PRRC2C, Q9Y520
# Procedure: as §1
# [34] = molecular target: RECQL5, O94762
# Procedure: as §1
# [35] = molecular target: RPL37A, P61513
# Procedure: as §1
# [36] = molecular target: SRSF4, Q08170
# Procedure: as §1
# [37] = molecular target: TIA1, P31483
# Procedure: as §1
# [38] = molecular target: ATP2A2, P16615
# Procedure: as §1
# [39] = molecular target: EARS2, Q5JPH6
# Procedure: as §1
# [40] = molecular target: GATAD1, Q8WUU5
# Procedure: as §1
# [41] = molecular target: MMTAG2, Q9BU76
# Procedure: as §1
# [42] = molecular target: MRPS5, P82675
# Procedure: as §1
# [43] = molecular target: NUP153, P49790
# Procedure: as §1
# [44] = molecular target: PPP1R10, Q96QC0
# Procedure: as §1
# [45] = molecular target: RBM15, Q96T37
# Procedure: as §1
# [46] = molecular target: ZCCHC3, Q9NUD5
# Procedure: as §1
# [47] = molecular target: ZFR, Q96KR1
# Procedure: as §1
binder,measurement,setting,value
PMIMSTTALLQFWFV [PDZRN3-AS1],PRISMA enrichment of interactor (log2),[1],5.22
same,PRISMA enrichment of interactor (log2),[2],5.3
same,PRISMA enrichment of interactor (log2),[3],5.07
same,PRISMA enrichment of interactor (log2),[4],5.28
same,PRISMA enrichment of interactor (log2),[5],4.74
same,PRISMA enrichment of interactor (log2),[6],3.69
same,PRISMA enrichment of interactor (log2),[7],5.93
same,PRISMA enrichment of interactor (log2),[8],4.09
same,PRISMA enrichment of interactor (log2),[9],4.63
same,PRISMA enrichment of interactor (log2),[10],6.09
same,PRISMA enrichment of interactor (log2),[11],5.44
same,PRISMA enrichment of interactor (log2),[12],5
same,PRISMA enrichment of interactor (log2),[13],4.51
same,PRISMA enrichment of interactor (log2),[14],5.5
KLSWKTERPSPDDIV [RP11-620J15.3],PRISMA enrichment of interactor (log2),[15],4.46
same,PRISMA enrichment of interactor (log2),[16],4.98
same,PRISMA enrichment of interactor (log2),[17],4.18
same,PRISMA enrichment of interactor (log2),[18],6.08
same,PRISMA enrichment of interactor (log2),[19],4.88
same,PRISMA enrichment of interactor (log2),[20],6.09
same,PRISMA enrichment of interactor (log2),[21],4.75
same,PRISMA enrichment of interactor (log2),[22],3.85
same,PRISMA enrichment of interactor (log2),[23],5.76
same,PRISMA enrichment of interactor (log2),[24],5.45
same,PRISMA enrichment of interactor (log2),[25],5.34
same,PRISMA enrichment of interactor (log2),[26],4.22
same,PRISMA enrichment of interactor (log2),[27],7.85
same,PRISMA enrichment of interactor (log2),[28],4.81
same,PRISMA enrichment of interactor (log2),[29],3.78
same,PRISMA enrichment of interactor (log2),[30],4.86
same,PRISMA enrichment of interactor (log2),[31],4.34
same,PRISMA enrichment of interactor (log2),[32],4.77
same,PRISMA enrichment of interactor (log2),[33],4.52
same,PRISMA enrichment of interactor (log2),[34],5.56
same,PRISMA enrichment of interactor (log2),[35],5.41
same,PRISMA enrichment of interactor (log2),[36],5.59
same,PRISMA enrichment of interactor (log2),[37],4.53
LKSRERQWQGQVAKC [RP11-140K17.3],PRISMA enrichment of interactor (log2),[38],4.98
same,PRISMA enrichment of interactor (log2),[39],5.58
same,PRISMA enrichment of interactor (log2),[40],3.98
same,PRISMA enrichment of interactor (log2),[41],5.31
same,PRISMA enrichment of interactor (log2),[42],6.98
same,PRISMA enrichment of interactor (log2),[43],5.6
same,PRISMA enrichment of interactor (log2),[44],4.99
same,PRISMA enrichment of interactor (log2),[45],4.32
same,PRISMA enrichment of interactor (log2),[46],4.66
same,PRISMA enrichment of interactor (log2),[47],6.84

# As a short view, part of the list above.
binder,measurement,setting,value
KLSWKTERPSPDDIV [RP11-620J15.3],PRISMA enrichment of interactor (log2),[31],4.34
same,PRISMA enrichment of interactor (log2),[32],4.77
